Test: Effect of uric acid and HSA on extent of AMBB oxidation (UPLC)
Type: physicochemical
Settings: 100 μM AMBB

CC(=O)Nc1ccc(OCc2ccc(B(O)O)cc2)cc1 [AMBB, (4-((4-Acetamidophenoxy)methyl)phenyl)-boronic Acid]
effect of uric acid on yield of AM, H2O2-induced oxidation (50 μM H2O2, 0–400 μM uric acid): did not affect | effect of HSA on efficiency of AM formation, H2O2-induced oxidation (50 μM H2O2, 0–700 μM HSA): significantly reduced | amount of AMB-OH formed by HOCl oxidation (50 μM HOCl, 25 μM uric acid): reduced the amount of AMB-OH by approximately half | AMBB oxidation by HOCl (50 μM HOCl, 200 μM uric acid): almost complete inhibition | peak of AM after HOCl oxidation (50 μM HOCl, any amount of HSA, e.g. 25 μM): completely abolished | AM formed (50 μM HOCl, no HSA, extended incubation): 50 µM | effect of uric acid on extent of AMBB oxidation by ONOO– (50 μM ONOO–, 0–400 μM uric acid): virtually no effect | yield of AM after ONOO– oxidation (50 μM ONOO–, 700 μM HSA): about 50%

— article PMC10445283, “Boronate-Based Oxidant-Responsive Derivatives of Acetaminophen as Proinhibitors of Myeloperoxidase” (Chemical Research in Toxicology, 2023)
